Measurements: PMC7170509, “Substrate recognition and ATPase activity of the E. coli cysteine/cystine ABC transporter YecSC-FliY” (The Journal of Biological Chemistry, 2020)
No constants are given. Whether binding was seen depends on the method and setting. Some entries that bind do so weakly or less than the wild type. For some assays here: Where a sequence is shown, tags or fusion partners need not be part of it. Blank lines part the entries; values can stand above or below the binder they belong to.

Key:
[1] = molecular target: T1, YecC (nucleotide-binding domain of YecSC), N-terminally His10-tagged (E. coli) (UniProt P37774); test: co-purification (Ni-NTA affinity chromatography); His10-YecC and tag-free YecS co-expressed in E. coli; membranes extracted with 7-cyclohexyl-1-heptyl-β-D-maltoside, or with 0.5% DM and DDM; Ni-NTA column, Tris-HCl pH 7.5, 0.5 M NaCl, elution with 60–250 mM imidazole
T1 sequence: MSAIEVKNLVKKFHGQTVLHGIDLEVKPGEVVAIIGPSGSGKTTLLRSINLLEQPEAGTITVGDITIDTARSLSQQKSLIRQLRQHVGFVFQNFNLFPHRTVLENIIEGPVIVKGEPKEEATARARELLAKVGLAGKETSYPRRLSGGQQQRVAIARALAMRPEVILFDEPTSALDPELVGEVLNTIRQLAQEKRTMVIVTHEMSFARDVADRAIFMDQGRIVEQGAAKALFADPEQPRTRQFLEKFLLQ

[2] = molecular target: FliY, the substrate-binding protein (SBP) of the E. coli YecSC-FliY cysteine/cystine ABC import system (E. coli) (UniProt P0AEM9); test: SEC; purified FliY on size exclusion chromatography; conditions not given; both purified

- binding [1]: binds
B1: YecS (transmembrane domain of YecSC), tag-free (protein, UniProt P0AFT2 1-222)
chain: MQESIQLVIDSLPFLLKGAGYTLQLSIGGMFFGLLLGFILALMRLSPIWPVRWLARFYISIFRGTPLIAQLFMIYYGLPQFGIELDPIPSAMIGLSLNTAAYAAETLRAAISSIDKGQWEAAASIGMTPWQTMRRAILPQAARVALPPLSNSFISLVKDTSLAATIQVPELFRQAQLITSRTLEVFTMYLAASLIYWIMATVLSTLQNHFENQLNRQEREPK

- binding [2]: no binding
B2: FliY, the substrate-binding protein (SBP) of the E. coli YecSC-FliY cysteine/cystine ABC import system (natural protein, UniProt P0AEM9 30-266, looked up)
chain: DEGLLNKVKERGTLLVGLEGTYPPFSFQGDDGKLTGFEVEFAQQLAKHLGVEASLKPTKWDGMLASLDSKRIDVVINQVTISDERKKKYDFSTPYTISGIQALVKKGNEGTIKTADDLKGKKVGVGLGTNYEEWLRQNVQGVDVRTYDDDPTKYQDLRVGRIDAILVDRLAALDLVKKTNDTLAVTGEAFSRQESGVALRKGNEDLLKAVNDAIAEMQKDGTLQALSEKWFGADVTK
